Experimental data published in the supplement of paper PMC6411743.
± gives the standard deviation of the averaged measurements. The entries are a selection whose mix differs from that of the whole data set. Most entries show no effect beyond the scatter of the controls.

Sequences of proteins named here, by UniProt entry; tags and fusion partners are left off. A change or cut given only in a name is not applied to a line headed by its entry.
UniProt P43686, whole entry: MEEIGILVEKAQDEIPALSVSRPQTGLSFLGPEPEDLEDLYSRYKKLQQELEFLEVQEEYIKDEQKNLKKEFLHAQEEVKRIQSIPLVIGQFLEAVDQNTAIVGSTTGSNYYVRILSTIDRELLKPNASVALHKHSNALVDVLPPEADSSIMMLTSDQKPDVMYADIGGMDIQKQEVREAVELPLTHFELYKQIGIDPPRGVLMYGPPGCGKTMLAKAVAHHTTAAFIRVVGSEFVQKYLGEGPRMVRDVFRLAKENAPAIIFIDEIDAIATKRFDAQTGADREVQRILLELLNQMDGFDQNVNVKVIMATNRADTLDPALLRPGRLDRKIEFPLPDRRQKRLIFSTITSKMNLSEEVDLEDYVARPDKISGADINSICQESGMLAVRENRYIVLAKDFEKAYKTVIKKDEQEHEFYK
UniProt P51858: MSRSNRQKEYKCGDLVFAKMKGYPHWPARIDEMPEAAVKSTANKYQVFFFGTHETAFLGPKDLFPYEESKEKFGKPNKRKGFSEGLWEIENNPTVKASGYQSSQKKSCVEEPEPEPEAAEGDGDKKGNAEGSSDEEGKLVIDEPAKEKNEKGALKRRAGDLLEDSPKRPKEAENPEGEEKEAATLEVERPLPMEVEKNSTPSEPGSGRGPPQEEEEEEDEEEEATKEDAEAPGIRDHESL
UniProt P48454, whole entry: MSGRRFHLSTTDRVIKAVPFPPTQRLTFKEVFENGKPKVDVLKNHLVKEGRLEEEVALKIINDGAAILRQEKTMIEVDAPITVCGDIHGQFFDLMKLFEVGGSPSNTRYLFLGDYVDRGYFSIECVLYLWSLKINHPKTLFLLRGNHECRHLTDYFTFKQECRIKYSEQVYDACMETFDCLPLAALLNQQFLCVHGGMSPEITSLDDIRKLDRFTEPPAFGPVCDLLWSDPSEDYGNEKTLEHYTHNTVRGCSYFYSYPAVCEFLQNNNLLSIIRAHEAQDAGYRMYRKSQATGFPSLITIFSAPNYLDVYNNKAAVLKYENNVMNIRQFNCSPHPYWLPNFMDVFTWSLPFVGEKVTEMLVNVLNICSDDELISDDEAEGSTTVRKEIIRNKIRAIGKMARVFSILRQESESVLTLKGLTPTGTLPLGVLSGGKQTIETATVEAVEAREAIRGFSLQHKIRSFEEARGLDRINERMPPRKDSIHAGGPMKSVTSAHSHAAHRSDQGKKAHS
UniProt P53041: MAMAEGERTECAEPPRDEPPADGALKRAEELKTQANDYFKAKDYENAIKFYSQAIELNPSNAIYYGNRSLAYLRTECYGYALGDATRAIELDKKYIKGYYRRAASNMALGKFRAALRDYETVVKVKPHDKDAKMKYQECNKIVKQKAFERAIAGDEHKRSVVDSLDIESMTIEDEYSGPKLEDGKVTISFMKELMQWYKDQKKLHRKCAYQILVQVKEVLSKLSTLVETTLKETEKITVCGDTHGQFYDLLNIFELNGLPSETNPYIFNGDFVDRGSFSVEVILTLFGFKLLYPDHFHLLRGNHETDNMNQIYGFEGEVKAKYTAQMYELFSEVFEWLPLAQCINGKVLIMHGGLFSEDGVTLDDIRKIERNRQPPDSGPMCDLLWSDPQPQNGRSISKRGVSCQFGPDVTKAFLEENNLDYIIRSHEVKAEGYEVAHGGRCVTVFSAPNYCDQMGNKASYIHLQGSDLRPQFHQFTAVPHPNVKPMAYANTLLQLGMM
UniProt P41440: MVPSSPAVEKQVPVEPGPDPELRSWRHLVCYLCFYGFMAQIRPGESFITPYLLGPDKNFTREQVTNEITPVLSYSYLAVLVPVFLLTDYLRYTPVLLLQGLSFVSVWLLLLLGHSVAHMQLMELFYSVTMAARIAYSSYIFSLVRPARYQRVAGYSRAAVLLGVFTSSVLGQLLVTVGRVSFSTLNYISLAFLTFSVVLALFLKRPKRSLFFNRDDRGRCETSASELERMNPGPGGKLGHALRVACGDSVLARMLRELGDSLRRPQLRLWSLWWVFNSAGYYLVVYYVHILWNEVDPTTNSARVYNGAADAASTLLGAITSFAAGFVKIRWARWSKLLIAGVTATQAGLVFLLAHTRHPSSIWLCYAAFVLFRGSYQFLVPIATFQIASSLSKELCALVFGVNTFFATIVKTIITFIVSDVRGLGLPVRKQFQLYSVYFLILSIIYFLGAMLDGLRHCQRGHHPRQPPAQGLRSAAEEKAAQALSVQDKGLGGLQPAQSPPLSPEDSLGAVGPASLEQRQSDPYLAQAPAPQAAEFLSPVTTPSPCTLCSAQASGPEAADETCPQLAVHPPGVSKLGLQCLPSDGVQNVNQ
UniProt P49792, whole entry: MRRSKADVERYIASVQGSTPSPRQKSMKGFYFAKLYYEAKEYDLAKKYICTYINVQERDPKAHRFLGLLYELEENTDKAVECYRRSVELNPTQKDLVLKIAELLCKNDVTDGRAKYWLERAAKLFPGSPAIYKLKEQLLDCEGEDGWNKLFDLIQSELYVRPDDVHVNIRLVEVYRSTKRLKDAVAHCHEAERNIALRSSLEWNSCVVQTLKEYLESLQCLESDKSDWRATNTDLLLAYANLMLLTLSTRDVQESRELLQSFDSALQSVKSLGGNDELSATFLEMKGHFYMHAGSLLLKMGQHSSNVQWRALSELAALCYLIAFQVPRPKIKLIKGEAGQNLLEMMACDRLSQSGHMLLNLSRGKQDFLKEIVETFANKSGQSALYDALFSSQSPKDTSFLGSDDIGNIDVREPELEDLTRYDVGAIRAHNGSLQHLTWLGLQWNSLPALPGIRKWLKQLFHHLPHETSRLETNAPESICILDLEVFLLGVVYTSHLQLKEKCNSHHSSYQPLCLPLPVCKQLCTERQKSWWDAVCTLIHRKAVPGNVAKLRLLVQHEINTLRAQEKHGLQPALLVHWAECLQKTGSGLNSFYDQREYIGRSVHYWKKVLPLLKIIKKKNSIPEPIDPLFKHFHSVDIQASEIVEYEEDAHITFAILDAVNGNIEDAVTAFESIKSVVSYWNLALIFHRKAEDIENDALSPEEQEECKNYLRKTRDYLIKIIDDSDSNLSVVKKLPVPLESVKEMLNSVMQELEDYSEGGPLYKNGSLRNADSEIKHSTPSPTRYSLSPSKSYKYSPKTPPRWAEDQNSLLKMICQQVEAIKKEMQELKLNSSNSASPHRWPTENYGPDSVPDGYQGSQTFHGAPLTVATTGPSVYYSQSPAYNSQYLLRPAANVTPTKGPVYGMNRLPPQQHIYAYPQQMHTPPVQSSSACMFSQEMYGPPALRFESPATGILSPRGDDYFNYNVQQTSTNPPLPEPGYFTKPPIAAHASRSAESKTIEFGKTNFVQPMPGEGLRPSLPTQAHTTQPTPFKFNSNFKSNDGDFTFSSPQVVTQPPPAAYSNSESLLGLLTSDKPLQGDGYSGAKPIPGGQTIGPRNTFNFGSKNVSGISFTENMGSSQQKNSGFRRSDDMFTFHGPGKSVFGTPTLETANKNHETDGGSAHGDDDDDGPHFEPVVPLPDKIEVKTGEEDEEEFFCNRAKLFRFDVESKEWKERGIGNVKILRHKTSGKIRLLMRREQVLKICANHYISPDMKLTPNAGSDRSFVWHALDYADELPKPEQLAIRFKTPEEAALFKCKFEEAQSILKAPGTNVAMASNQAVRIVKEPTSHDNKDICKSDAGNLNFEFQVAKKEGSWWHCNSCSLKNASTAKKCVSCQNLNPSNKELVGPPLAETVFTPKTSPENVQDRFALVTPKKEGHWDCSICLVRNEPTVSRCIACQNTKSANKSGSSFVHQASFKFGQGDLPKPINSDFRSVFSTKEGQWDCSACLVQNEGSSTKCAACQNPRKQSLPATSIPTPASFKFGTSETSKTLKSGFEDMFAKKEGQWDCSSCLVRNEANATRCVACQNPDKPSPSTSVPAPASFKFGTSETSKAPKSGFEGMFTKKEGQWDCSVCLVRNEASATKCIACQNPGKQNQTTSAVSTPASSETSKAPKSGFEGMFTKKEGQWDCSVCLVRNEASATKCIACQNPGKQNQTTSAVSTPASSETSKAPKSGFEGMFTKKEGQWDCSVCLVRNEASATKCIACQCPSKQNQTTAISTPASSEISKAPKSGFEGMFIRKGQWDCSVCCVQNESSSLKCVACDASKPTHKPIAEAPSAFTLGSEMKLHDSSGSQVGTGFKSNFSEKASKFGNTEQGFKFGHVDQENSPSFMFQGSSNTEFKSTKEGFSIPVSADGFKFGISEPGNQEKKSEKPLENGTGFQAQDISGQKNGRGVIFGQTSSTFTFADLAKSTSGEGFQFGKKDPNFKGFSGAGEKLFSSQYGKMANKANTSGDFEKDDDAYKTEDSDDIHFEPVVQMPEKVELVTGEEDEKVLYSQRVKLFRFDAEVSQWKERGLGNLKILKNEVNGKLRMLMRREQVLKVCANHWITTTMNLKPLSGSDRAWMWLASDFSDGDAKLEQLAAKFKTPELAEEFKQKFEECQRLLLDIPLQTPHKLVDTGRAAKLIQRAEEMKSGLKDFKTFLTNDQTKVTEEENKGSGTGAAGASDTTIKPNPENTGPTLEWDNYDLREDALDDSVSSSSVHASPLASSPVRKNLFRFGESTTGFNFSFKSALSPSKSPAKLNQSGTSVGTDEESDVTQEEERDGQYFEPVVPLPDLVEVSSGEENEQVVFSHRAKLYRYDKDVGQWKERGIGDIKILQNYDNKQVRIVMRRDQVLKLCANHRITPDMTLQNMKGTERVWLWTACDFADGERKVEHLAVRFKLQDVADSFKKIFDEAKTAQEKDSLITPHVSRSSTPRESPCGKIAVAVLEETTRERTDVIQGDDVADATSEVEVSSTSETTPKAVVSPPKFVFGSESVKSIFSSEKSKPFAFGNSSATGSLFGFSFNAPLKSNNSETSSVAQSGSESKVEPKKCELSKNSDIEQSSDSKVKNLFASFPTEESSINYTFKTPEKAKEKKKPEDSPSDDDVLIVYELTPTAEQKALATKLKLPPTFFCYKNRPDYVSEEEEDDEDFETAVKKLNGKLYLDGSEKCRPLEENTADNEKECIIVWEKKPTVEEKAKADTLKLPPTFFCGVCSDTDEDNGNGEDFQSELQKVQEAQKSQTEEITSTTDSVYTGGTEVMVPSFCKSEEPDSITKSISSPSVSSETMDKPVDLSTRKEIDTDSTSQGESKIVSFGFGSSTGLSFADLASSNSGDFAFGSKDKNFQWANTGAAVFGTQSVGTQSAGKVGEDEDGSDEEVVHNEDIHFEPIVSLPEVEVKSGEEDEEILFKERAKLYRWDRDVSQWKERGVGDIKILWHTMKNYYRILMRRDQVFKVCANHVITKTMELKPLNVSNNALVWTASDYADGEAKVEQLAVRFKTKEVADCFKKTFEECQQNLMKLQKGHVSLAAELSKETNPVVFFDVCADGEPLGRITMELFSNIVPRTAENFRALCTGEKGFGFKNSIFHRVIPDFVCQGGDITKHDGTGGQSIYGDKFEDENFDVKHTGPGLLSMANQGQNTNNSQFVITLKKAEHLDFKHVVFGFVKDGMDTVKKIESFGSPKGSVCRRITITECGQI
UniProt P42568: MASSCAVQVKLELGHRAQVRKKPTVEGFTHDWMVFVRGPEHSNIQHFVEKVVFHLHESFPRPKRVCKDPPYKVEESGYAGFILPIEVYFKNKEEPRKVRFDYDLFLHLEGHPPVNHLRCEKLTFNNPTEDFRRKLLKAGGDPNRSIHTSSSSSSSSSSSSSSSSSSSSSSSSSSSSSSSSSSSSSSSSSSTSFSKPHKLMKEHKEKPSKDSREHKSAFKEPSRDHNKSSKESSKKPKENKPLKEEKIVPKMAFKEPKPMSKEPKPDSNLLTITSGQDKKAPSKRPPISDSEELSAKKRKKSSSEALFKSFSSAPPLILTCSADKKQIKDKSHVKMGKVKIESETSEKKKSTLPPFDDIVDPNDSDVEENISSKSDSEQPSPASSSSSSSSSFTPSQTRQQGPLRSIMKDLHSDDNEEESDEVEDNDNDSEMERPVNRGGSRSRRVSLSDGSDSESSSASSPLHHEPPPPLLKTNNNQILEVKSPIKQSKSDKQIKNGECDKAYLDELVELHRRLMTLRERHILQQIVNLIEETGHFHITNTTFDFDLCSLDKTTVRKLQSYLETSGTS
UniProt P50579: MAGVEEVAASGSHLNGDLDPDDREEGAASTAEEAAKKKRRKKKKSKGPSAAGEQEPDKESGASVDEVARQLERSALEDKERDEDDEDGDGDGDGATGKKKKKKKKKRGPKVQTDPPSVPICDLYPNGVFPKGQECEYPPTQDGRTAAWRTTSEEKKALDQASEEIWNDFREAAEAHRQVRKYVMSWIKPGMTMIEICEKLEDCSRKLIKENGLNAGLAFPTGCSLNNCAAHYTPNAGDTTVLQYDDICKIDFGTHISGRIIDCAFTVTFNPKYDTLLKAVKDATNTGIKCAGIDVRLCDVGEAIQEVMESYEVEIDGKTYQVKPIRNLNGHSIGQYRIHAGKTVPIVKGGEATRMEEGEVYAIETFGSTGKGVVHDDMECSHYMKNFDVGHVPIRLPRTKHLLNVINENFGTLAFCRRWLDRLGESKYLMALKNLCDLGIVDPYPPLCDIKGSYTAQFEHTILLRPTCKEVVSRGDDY

The targets below were run with Nc1ncnc2c1ncn2[C@@H]1O[C@H](COP(=O)(O)OP(=O)(O)NP(=O)(O)O)[C@@H](O)[C@H]1O [adenylyl imidodiphosphate] (assay: NP40-soluble protein abundance relative to vehicle (solubility fold change) (ratio); higher = more soluble protein in presence of AMP-PNP). Conditions: concentration: 0.1mM.
Summary of the method: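 Data come from three independent experiments in which Dounce-homogenised Jurkat crude lysate was treated at eight concentrations from 0.1 to 10 mM. Treatment ran 10 min at room temperature and then 3 min at 37 °C, after which 0.8% NP40 and benzonase were added for 60 min at 4 °C before ultracentrifugation. The supernatant underwent TMT labelling and LC-MS/MS, and vsn-normalised intensities were expressed as fold change against the detergent-processed vehicle in each replicate.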

Question: For PSMC4 (UniProt P43686), which NP40-soluble protein abundance is on record?
Answer: 1.15 ± 0.055

Question: Which NP40-soluble protein abundance does the source give for UniProt P53396 and related entries here?
Answer: 1.03 ± 0.031

Question: For HDGF (UniProt P51858), which NP40-soluble protein abundance is on record?
Answer: 0.9302 ± 0.0077

Question: Which NP40-soluble protein abundance does the source give for NOTCH1 (UniProt P46531) here?
Answer: 1.01 ± 0.023

Question: RECQL (UniProt P46063) was tested. Which NP40-soluble protein abundance did it give?
Answer: 1 ± 0.035

Question: How did the NP40-soluble protein abundance turn out when RANGAP1 (UniProt P46060) was run?
Answer: 0.9997 ± 0.0076

Question: How did the NP40-soluble protein abundance turn out when UniProt P51513 and related entries was run?
Answer: 0.973 ± 0.038

Question: Which NP40-soluble protein abundance does the source give for UniProt P41229 and related entries here?
Answer: 1.05 ± 0.051

Question: NAMPT (UniProt P43490) was tested. Which NP40-soluble protein abundance did it give?
Answer: 0.9842 ± 0.002

Question: Which NP40-soluble protein abundance does the source give for UniProt P48454 and related entries here?
Answer: 0.971 ± 0.017

Question: UniProt P51648 and related entries was tested. Which NP40-soluble protein abundance did it give?
Answer: 1.02 ± 0.023

Question: PPP5C (UniProt P53041) was tested. Which NP40-soluble protein abundance did it give?
Answer: 0.991 ± 0.033

Question: UniProt P54886 and related entries was tested. Which NP40-soluble protein abundance did it give?
Answer: 1.03 ± 0.016

Question: Which NP40-soluble protein abundance does the source give for UniProt P46108 and related entries here?
Answer: 1.04 ± 0.036

Question: Which NP40-soluble protein abundance does the source give for RABGGTB (UniProt P53611) here?
Answer: 1.03 ± 0.024

Question: Which NP40-soluble protein abundance does the source give for SLC19A1 (UniProt P41440) here?
Answer: 1 ± 0.037

Question: HNRNPF (UniProt P52597) was tested. Which NP40-soluble protein abundance did it give?
Answer: 0.976 ± 0.046

Question: PTPN9 (UniProt P43378) was tested. Which NP40-soluble protein abundance did it give?
Answer: 1 ± 0.028

Question: With UniProt P51532 and related entries as the target, how does the NP40-soluble protein abundance read?
Answer: 0.987 ± 0.025

Question: PSMB10 (UniProt P40306) was tested. Which NP40-soluble protein abundance did it give?
Answer: 0.985 ± 0.042

Question: How did the NP40-soluble protein abundance turn out when RANBP2 (UniProt P49792) was run?
Answer: 0.989 ± 0.044

Question: With RAD23B (UniProt P54727) as the target, how does the NP40-soluble protein abundance read?
Answer: 0.936 ± 0.03

Question: How did the NP40-soluble protein abundance turn out when UniProt P49641 and related entries was run?
Answer: 1 ± 0.027

Question: With YARS (UniProt P54577) as the target, how does the NP40-soluble protein abundance read?
Answer: 0.985 ± 0.02

Question: For UniProt P49748 and related entries, which NP40-soluble protein abundance is on record?
Answer: 1 ± 0.038

Question: For UniProt P53384 and related entries, which NP40-soluble protein abundance is on record?
Answer: 0.988 ± 0.032

Question: Which NP40-soluble protein abundance does the source give for PPT1 (UniProt P50897) here?
Answer: 0.987 ± 0.036

Question: “UniProt P50570-4|P50570 and related entries” was tested. Which NP40-soluble protein abundance did it give?
Answer: 0.995 ± 0.017

Question: With UniProt P46734 and related entries as the target, how does the NP40-soluble protein abundance read?
Answer: 1.08 ± 0.087

Question: How did the NP40-soluble protein abundance turn out when UniProt P45984 and related entries was run?
Answer: 1.02 ± 0.04

Question: How did the NP40-soluble protein abundance turn out when UniProt P51790 and related entries was run?
Answer: 1.01 ± 0.046

Question: With FNTB (UniProt P49356) as the target, how does the NP40-soluble protein abundance read?
Answer: 1.02 ± 0.028

Question: Which NP40-soluble protein abundance does the source give for MARCKSL1 (UniProt P49006) here?
Answer: 0.994 ± 0.06

Question: With UniProt P42568 and related entries as the target, how does the NP40-soluble protein abundance read?
Answer: 0.999 ± 0.042

Question: For UniProt P50579 and related entries, which NP40-soluble protein abundance is on record?
Answer: 1 ± 0.015

Question: For UniProt P40925 and related entries, which NP40-soluble protein abundance is on record?
Answer: 0.9693 ± 0.0059

Question: How did the NP40-soluble protein abundance turn out when STAT6 (UniProt P42226) was run?
Answer: 0.9867 ± 0.0047

Same assay, conditions: concentration: 0.5mM

Question: Which NP40-soluble protein abundance does the source give for PSMC4 (UniProt P43686) here?
Answer: 0.944 ± 0.039

Question: For UniProt P53396 and related entries, which NP40-soluble protein abundance is on record?
Answer: 0.988 ± 0.092

Question: For HDGF (UniProt P51858), which NP40-soluble protein abundance is on record?
Answer: 1.02 ± 0.065

Question: With NOTCH1 (UniProt P46531) as the target, how does the NP40-soluble protein abundance read?
Answer: 0.983 ± 0.034

Question: How did the NP40-soluble protein abundance turn out when RECQL (UniProt P46063) was run?
Answer: 0.981 ± 0.045

Question: How did the NP40-soluble protein abundance turn out when RANGAP1 (UniProt P46060) was run?
Answer: 1.01 ± 0.017

Question: UniProt P51513 and related entries was tested. Which NP40-soluble protein abundance did it give?
Answer: 1.01 ± 0.026

Question: For UniProt P41229 and related entries, which NP40-soluble protein abundance is on record?
Answer: 0.987 ± 0.028

Question: How did the NP40-soluble protein abundance turn out when NAMPT (UniProt P43490) was run?
Answer: 0.987 ± 0.053

Question: Which NP40-soluble protein abundance does the source give for UniProt P48454 and related entries here?
Answer: 0.99 ± 0.019

Question: How did the NP40-soluble protein abundance turn out when UniProt P51648 and related entries was run?
Answer: 0.981 ± 0.096

Question: How did the NP40-soluble protein abundance turn out when PPP5C (UniProt P53041) was run?
Answer: 0.998 ± 0.025

Question: UniProt P54886 and related entries was tested. Which NP40-soluble protein abundance did it give?
Answer: 1.02 ± 0.032

Question: Which NP40-soluble protein abundance does the source give for UniProt P46108 and related entries here?
Answer: 1.05 ± 0.044

Question: How did the NP40-soluble protein abundance turn out when RABGGTB (UniProt P53611) was run?
Answer: 1.04 ± 0.075

Question: Which NP40-soluble protein abundance does the source give for SLC19A1 (UniProt P41440) here?
Answer: 1 ± 0.021

Question: HNRNPF (UniProt P52597) was tested. Which NP40-soluble protein abundance did it give?
Answer: 0.988 ± 0.03

Question: With PTPN9 (UniProt P43378) as the target, how does the NP40-soluble protein abundance read?
Answer: 1 ± 0.049

Question: How did the NP40-soluble protein abundance turn out when UniProt P51532 and related entries was run?
Answer: 1.04 ± 0.051

Question: For PSMB10 (UniProt P40306), which NP40-soluble protein abundance is on record?
Answer: 0.968 ± 0.043

Question: RANBP2 (UniProt P49792) was tested. Which NP40-soluble protein abundance did it give?
Answer: 1.03 ± 0.034

Question: Which NP40-soluble protein abundance does the source give for RAD23B (UniProt P54727) here?
Answer: 0.938 ± 0.057

Question: UniProt P49641 and related entries was tested. Which NP40-soluble protein abundance did it give?
Answer: 0.978 ± 0.049

Question: With YARS (UniProt P54577) as the target, how does the NP40-soluble protein abundance read?
Answer: 1.02 ± 0.046

Question: For UniProt P49748 and related entries, which NP40-soluble protein abundance is on record?
Answer: 0.975 ± 0.07

Question: Which NP40-soluble protein abundance does the source give for UniProt P53384 and related entries here?
Answer: 1.02 ± 0.031

Question: With PPT1 (UniProt P50897) as the target, how does the NP40-soluble protein abundance read?
Answer: 1.01 ± 0.086

Question: “UniProt P50570-4|P50570 and related entries” was tested. Which NP40-soluble protein abundance did it give?
Answer: 0.998 ± 0.048

Question: Which NP40-soluble protein abundance does the source give for UniProt P46734 and related entries here?
Answer: 1.08 ± 0.11

Question: UniProt P45984 and related entries was tested. Which NP40-soluble protein abundance did it give?
Answer: 1.01 ± 0.024

Question: How did the NP40-soluble protein abundance turn out when UniProt P51790 and related entries was run?
Answer: 1.017 ± 0.0086

Question: How did the NP40-soluble protein abundance turn out when FNTB (UniProt P49356) was run?
Answer: 1.032 ± 0.0059

Question: For MARCKSL1 (UniProt P49006), which NP40-soluble protein abundance is on record?
Answer: 1.03 ± 0.15

Question: For UniProt P42568 and related entries, which NP40-soluble protein abundance is on record?
Answer: 1.02 ± 0.041

Question: How did the NP40-soluble protein abundance turn out when UniProt P50579 and related entries was run?
Answer: 1.02 ± 0.038

Question: UniProt P40925 and related entries was tested. Which NP40-soluble protein abundance did it give?
Answer: 0.99 ± 0.029

Question: How did the NP40-soluble protein abundance turn out when STAT6 (UniProt P42226) was run?
Answer: 0.9956 ± 0.0047
